Some of the results follow.

The chains behind the UniProt entries cited, without tags or fusion partners. Where a name states a change or a piece, a line headed by the entry shows the natural chain unless it says otherwise.
UniProt Q14CW9: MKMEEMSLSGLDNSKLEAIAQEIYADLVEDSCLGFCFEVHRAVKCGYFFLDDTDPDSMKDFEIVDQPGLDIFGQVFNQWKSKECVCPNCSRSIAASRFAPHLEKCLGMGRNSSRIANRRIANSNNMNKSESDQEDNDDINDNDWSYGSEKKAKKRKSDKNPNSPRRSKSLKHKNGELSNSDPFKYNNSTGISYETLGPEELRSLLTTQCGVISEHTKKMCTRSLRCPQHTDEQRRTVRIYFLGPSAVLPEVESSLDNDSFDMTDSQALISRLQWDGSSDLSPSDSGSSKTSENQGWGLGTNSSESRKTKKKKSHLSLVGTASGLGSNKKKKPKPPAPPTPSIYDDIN
UniProt Q67FW5: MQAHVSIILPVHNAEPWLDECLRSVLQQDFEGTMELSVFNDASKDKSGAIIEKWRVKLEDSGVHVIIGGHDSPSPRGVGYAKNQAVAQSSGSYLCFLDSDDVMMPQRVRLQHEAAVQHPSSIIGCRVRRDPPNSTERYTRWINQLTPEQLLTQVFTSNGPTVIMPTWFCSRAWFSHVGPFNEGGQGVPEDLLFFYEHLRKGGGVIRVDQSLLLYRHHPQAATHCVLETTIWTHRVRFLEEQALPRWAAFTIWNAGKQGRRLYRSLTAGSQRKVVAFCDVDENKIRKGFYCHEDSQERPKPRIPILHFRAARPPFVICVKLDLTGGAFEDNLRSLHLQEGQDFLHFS
UniProt Q76L83: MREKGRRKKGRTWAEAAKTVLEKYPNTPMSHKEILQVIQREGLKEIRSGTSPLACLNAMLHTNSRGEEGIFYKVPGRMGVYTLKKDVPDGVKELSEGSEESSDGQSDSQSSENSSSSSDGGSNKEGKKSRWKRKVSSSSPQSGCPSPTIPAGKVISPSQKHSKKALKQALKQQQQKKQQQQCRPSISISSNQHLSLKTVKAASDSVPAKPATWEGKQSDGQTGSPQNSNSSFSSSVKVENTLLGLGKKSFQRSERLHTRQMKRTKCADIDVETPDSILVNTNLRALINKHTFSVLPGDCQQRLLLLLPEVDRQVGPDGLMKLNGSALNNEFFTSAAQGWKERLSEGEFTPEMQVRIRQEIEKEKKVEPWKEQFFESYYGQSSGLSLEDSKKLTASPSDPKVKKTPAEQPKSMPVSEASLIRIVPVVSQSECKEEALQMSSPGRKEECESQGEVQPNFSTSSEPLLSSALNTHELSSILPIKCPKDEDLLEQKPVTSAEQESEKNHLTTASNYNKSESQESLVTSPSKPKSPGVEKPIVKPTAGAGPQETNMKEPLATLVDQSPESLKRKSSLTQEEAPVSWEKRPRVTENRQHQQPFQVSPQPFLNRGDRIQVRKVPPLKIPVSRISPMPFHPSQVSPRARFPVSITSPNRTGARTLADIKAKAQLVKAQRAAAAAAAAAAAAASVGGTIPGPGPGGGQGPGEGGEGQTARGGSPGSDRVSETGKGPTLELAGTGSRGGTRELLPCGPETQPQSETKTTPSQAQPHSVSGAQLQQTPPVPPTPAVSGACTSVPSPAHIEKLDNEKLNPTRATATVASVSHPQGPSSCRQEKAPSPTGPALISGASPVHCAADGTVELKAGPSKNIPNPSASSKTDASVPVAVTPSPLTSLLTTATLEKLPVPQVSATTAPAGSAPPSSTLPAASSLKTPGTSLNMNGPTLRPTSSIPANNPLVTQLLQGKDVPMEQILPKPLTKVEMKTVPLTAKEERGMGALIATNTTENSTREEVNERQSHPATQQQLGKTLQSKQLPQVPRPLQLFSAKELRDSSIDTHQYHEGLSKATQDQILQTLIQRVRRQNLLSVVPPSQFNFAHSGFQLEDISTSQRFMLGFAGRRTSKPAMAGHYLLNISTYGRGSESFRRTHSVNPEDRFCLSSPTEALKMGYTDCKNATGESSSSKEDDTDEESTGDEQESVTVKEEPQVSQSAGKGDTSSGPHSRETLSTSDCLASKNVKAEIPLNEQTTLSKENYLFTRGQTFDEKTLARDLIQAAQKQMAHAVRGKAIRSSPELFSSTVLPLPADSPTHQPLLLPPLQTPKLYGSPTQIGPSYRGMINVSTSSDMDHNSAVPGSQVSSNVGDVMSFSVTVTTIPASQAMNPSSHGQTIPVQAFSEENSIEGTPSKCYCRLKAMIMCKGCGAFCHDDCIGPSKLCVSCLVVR
UniProt P00966: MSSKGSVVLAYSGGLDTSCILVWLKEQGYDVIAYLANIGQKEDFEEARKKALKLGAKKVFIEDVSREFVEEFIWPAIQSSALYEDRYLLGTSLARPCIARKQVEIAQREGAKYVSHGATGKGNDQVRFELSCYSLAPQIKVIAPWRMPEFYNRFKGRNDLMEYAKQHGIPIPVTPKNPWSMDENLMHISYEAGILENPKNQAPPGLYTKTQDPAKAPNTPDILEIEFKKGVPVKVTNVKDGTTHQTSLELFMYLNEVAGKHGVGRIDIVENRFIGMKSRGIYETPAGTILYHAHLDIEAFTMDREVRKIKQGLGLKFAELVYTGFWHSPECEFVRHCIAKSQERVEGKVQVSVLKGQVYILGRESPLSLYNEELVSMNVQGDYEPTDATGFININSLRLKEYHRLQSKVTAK
UniProt Q9C0F0: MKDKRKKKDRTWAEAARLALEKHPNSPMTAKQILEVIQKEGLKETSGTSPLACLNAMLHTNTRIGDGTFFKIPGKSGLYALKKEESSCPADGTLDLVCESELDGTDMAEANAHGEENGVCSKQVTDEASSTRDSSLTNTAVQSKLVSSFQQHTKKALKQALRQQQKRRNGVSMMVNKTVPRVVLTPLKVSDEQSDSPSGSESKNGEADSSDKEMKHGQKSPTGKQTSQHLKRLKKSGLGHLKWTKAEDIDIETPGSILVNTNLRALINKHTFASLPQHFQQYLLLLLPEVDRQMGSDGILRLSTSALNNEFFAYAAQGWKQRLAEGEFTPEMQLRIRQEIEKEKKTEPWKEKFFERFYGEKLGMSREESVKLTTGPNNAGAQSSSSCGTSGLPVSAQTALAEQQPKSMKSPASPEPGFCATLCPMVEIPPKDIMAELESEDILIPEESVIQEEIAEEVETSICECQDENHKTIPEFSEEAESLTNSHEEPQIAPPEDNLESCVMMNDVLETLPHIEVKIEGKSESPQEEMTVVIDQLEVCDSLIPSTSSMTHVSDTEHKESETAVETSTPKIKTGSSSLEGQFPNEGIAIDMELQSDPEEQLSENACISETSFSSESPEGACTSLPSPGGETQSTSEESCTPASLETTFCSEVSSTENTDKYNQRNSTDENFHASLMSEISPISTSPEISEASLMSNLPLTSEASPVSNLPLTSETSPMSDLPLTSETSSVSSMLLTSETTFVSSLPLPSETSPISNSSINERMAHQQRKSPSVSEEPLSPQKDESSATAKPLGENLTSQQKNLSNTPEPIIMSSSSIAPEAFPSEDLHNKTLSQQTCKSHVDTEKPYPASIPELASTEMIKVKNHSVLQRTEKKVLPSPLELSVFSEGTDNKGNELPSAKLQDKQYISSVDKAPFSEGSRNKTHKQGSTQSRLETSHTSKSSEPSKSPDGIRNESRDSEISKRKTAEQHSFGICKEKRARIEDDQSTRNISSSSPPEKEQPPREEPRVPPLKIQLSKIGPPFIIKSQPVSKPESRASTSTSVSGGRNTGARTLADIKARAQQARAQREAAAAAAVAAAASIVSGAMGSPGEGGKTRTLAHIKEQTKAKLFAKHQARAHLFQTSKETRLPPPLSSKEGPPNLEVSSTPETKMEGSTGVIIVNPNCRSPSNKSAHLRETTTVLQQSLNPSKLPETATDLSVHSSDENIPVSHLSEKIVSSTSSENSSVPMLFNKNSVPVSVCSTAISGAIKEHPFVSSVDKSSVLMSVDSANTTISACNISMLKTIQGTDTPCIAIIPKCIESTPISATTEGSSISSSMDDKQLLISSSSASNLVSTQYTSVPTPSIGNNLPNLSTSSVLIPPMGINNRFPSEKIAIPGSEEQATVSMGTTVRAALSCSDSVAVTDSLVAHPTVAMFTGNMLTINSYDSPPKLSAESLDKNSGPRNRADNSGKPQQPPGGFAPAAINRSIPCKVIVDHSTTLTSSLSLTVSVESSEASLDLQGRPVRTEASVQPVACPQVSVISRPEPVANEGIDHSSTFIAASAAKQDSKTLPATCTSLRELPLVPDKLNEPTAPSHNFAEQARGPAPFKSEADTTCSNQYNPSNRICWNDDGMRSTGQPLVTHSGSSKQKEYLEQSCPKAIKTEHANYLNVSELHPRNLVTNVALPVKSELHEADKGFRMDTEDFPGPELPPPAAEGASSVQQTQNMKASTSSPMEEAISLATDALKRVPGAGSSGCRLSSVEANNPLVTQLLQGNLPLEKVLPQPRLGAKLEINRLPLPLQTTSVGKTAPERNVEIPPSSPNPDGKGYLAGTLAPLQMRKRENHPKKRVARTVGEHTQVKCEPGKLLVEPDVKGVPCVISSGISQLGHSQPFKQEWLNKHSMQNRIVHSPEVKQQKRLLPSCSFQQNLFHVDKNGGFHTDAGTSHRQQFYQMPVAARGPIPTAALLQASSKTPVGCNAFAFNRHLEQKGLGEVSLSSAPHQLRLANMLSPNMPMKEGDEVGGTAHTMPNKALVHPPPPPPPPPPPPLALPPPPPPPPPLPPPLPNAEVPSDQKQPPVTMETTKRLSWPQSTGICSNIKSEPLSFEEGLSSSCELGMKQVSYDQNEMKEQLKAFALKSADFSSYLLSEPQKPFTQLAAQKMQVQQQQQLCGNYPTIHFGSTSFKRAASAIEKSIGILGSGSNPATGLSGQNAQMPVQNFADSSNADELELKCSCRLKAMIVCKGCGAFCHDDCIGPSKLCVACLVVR
UniProt Q8NCR0: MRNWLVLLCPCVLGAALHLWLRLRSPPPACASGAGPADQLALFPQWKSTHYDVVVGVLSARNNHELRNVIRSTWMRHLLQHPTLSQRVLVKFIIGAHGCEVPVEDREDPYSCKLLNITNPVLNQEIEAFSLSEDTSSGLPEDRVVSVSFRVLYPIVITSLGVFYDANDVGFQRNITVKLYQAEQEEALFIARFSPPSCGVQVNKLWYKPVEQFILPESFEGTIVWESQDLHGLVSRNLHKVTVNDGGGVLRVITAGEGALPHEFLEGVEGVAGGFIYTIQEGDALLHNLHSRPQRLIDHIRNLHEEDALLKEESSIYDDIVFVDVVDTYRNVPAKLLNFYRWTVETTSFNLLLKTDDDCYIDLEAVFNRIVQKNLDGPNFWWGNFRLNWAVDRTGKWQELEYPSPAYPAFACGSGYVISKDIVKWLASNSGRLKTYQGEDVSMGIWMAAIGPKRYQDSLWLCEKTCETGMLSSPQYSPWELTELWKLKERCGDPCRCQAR
UniProt Q6P4H8: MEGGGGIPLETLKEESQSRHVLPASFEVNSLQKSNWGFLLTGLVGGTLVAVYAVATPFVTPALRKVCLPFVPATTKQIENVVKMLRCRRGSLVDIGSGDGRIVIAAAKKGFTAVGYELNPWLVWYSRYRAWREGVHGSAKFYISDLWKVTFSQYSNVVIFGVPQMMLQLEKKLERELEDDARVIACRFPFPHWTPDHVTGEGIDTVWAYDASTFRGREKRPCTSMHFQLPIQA
UniProt P36542: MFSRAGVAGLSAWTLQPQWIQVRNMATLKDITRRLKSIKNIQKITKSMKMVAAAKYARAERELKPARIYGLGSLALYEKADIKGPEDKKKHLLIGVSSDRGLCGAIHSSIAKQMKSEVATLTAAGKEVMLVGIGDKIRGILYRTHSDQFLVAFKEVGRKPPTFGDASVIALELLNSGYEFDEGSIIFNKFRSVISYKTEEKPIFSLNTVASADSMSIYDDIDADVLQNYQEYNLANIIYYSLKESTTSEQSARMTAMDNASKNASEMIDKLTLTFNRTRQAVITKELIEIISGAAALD
UniProt Q9NWL6: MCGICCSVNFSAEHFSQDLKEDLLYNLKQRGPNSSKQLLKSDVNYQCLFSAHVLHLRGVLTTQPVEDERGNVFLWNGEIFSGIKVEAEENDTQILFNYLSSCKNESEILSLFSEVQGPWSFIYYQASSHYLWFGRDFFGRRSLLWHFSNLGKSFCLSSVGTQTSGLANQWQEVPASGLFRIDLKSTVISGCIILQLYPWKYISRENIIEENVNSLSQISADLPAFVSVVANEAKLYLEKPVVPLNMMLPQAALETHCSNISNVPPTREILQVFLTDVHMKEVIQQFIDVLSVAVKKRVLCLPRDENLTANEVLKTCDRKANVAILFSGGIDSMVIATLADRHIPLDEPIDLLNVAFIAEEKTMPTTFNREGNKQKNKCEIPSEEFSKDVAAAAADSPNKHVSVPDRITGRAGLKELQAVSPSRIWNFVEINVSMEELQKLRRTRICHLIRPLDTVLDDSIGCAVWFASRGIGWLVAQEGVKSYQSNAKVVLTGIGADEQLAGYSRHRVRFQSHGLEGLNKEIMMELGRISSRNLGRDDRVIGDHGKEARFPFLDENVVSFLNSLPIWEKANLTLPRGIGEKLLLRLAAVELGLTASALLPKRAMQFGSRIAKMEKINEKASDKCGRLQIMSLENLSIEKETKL

Compound in the first test: CC[C@@H]1C(=O)N(C)c2cnc(Nc3ccc(C(=O)N[C@H]4CC[C@H](N5CCN(CC6CC6)CC5)CC4)cc3OC)nc2N1C(C)C [volasertib]
The test can be described thus: log2 fold change, soluble protein after heating vs DMSO (PISA); higher = thermal stabilisation; K562 lysate, 10 uM; active = over 0.2 and 3.5 SD of the protein, either way, in both replicates (recomputed). A digest of the protocol:
(§1)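 K562 pellets were dounce-homogenised in PBS pH 7.4 with 1 mM MgCl2, and the crude extract at 1 mg/mL protein was treated with 10 μM compound for 30 min. Aliquots were heated for 3 min across 48°C-58°C, pooled, and brought to 0.5% NP-40 at 4°C; soluble protein was the supernatant after 21,000xg for 90 min. Soluble protein was quantified by TMTpro 16plex LC-MS/MS with channel sums equalised, and reported as log2 fold change in thermal stability against DMSO controls, with values from duplicates.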
In the case of ATP1B1 (UniProt P05026), the log2 fold change is inactive: 0.026.
As to ATXN7L3 isoform 2 (UniProt Q14CW9), the log2 fold change is inactive: -0.084.
Same read-out and setting: the same measure for B3GNTL1 (UniProt Q67FW5): inactive: -0.082; for ASXL2 (UniProt Q76L83): inactive: 0; for ATP5F1B (UniProt H0YI37): inactive: -0.289.
As to ATP5F1A (UniProt K7ENJ4), the log2 fold change was inactive: 0.097.
Still for that read-out and setting: the same measure for ATP5F1B (UniProt F8W079): inactive: 0.045.
As to ATP11C, A0A067XG54, the log2 fold change is inactive: -0.259.

Compound in the next test: CCn1c(C(=O)N(C2CC2)C2CC2)cc2c3c(ncn3C)c(Nc3cc(C)n(C)n3)nc21
The description is as above. In outline: as §1
As to ASS1 (UniProt P00966), the log2 fold change is inactive: -0.006.
The same measure, in the same setting: the same measure for ATAD2B (UniProt Q9ULI0): inactive: 0.119; for B3GALT6 (UniProt Q96L58): inactive: 0.115; for ATF1 (UniProt P18846): inactive: 0.021.
Regarding ATG4D (UniProt Q86TL0), the log2 fold change is inactive: 0.116.
The same measure, in the same setting: the same measure for ASXL3 (UniProt Q9C0F0): inactive: -0.224.
The same measure, in the same setting: the same measure for B3GALNT2 (UniProt Q8NCR0): inactive: 0.043; for ASXL1 (UniProt Q8IXJ9): inactive: -0.012; for ATP6V0A1 (UniProt Q93050): inactive: 0.075.
The same measure, in the same setting: the same measure for ATF6 (UniProt P18850): inactive: 0.05.
Take ATPSCKMT (UniProt Q6P4H8): the log2 fold change is inactive: 0.077.
Turning to ATG2A (UniProt Q2TAZ0), the log2 fold change is inactive: -0.009.
Take ATP1B4 (UniProt Q9UN42): the log2 fold change is inactive: 0.089.
On the same count and under the same terms, the same measure for ATP1B1 (UniProt P05026): inactive: -0.004.
For the target ATXN7L3 isoform 2 (UniProt Q14CW9), the log2 fold change was inactive: 0.031.
As to ATP2C1 isoform 3 (UniProt P98194), the log2 fold change was inactive: -0.06.
For B3GNTL1 (UniProt Q67FW5), the log2 fold change is inactive: 0.001.
The same measure, in the same setting: in the case of ASXL2 (UniProt Q76L83) it was inactive: 0.066.
Same read-out and setting: in the case of ATP5F1B (UniProt H0YI37) it was inactive: -0.514.
Take ATP5F1A (UniProt K7ENJ4): the log2 fold change is inactive: -0.001.
On the same count and under the same terms, in the case of ATP5F1C isoform 2 (UniProt P36542) it was inactive: -0.022.
Still for that read-out and setting: in the case of ATP11C, A0A067XG54 it was inactive: -0.092.

Compound in a further test: CCn1cc(-c2ccnc3[nH]c(-c4cccc(CN(C)C)c4)cc23)c(-c2ccc(NC(=O)N(C)C)cc2)n1
The test is described as above. A digest of the protocol:
as §1
For the target ASS1 (UniProt P00966), the log2 fold change was inactive: -0.02.
On the same count and under the same terms, in the case of ATE1 (UniProt O95260) it was inactive: 0.082; in that of ASNSD1 (UniProt Q9NWL6), inactive: -0.009.
Turning to ATF1 (UniProt P18846), the log2 fold change was inactive: -0.038.
As for ASXL1 (UniProt Q8IXJ9), the log2 fold change is inactive: 0.126.
On the same count and under the same terms, in the case of ATP6V0A1 (UniProt Q93050) it was inactive: -0.035; in that of ATP1B1 (UniProt P05026), inactive: 0.222.
ATXN7L3 isoform 2 (UniProt Q14CW9): the log2 fold change was inactive: -0.147.
The same measure, in the same setting: the same measure for ATP2C1 isoform 3 (UniProt P98194): inactive: 0.054.
The same measure, in the same setting: the same measure for B3GNTL1 (UniProt Q67FW5): inactive: -0.087.
On to ASXL2 (UniProt Q76L83), for which the log2 fold change is inactive: -0.01.
As for ATP5F1A (UniProt K7ENJ4), the log2 fold change was inactive: -0.081.
Still for that read-out and setting: in the case of ATP11C, A0A067XG54 it was inactive: -0.157.

For the origin of these results see the supplement of paper PMC10849652.
